Test results reported in article PMC5758537.
These are yes or no findings as the source states them, for the method shown. In cells and extracts the contact can be indirect. Some results given as binding are weak or reduced against the parent protein; the word gives no strength.

Target: T1, dopamine D2 receptor (mouse, endogenous) (mouse (endogenous in mouse striatum)), P61168
T1 chain: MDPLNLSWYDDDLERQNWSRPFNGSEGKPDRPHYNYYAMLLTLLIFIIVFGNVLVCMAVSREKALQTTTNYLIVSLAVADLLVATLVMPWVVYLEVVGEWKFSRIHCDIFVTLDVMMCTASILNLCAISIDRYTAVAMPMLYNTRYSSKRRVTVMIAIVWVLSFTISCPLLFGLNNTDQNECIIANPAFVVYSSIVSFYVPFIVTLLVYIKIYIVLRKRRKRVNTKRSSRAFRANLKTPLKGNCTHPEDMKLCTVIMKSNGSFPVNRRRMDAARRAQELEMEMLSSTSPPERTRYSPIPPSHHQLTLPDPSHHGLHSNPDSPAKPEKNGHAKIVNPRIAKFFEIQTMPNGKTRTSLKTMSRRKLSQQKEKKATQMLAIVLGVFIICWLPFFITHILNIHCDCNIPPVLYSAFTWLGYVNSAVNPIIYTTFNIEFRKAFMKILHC
Assay: proximity ligation; in situ PLA on coronal brain slices (rat 25 um, monkey 30 um; mouse striatum); anti-D1R and anti-D2R antibodies directly conjugated to PLUS and MINUS oligonucleotides, 60 ug/ml; two sets of antibodies; confocal microscopy
Conditions: remark: other sources report otherwise

binding: binds
B1: dopamine D1 receptor (mouse, endogenous), Q61616 1-446 (receptor)
chain: MAPNTSTMDETGLPVERDFSFRILTACFLSLLILSTLLGNTLVCAAVIRFRHLRSKVTNFFVISLAVSDLLVAVLVMPWKAVAEIAGFWPFGSFCNIWVAFDIMCSTASILNLCVISVDRYWAISSPFQYERKMTPKAAFILISVAWTLSVLISFIPVQLSWHKAKPTWPLDGNFTSLEDAEDDNCDTRLSRTYAISSSLISFYIPVAIMIVTYTSIYRIAQKQIRRISALERAAVHAKNCQTTTGNGNPVECSQSESSFKMSFKRETKVLKTLSVIMGVFVCCWLPFFISNCMVPFCGSEETQPFCIDSITFDVFVWFGWANSSLNPIIYAFNADFQKAFSTLLGCYRLCPTTNNAIETVSINNNGAVMFSSHHEPRGSISKDCNLVYLIPHAVGSSEDLKREEAGGIPKPLEKLSPALSVILDYDTDVSLEKIQPVTHSGQHST
